Results deposited as PubChem BioAssay AID743454 (Peter MacCallum Cancer Centre, 2014)
Assay: 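Knock-downs lowering viability or raising caspase 3/7 activity in vorinostat-treated resistant cells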 (primary screen). System: human HCT116-VR colon cancer cells, selected for vorinostat resistance. Reagent: siRNA pool against human genes, 40 nM siRNA pool. Time to read-out: vorinostat for 24 h, read-out about 72 h after transfection. Treatment: vorinostat at 2.5 µM final. Measurement: 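Two measures, CellTiter-Fluor viability and luminescent caspase 3/7 activity, each as fold change against same-plate mock wells, mean of duplicates, then screen-wide robust z-score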. Reading the numbers: viability robust z-score: higher = more viable cells than screen typical; caspase robust z-score: higher = more caspase 3/7 activity than screen typical. Rule for the call: 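Hits are knock-downs in viability class RV1/RV2 or caspase class CA1/CA2, excluding ones that killed cells in the no-drug cell-count arm; hits then retested with single siRNAs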.
The deposit covers about 18,000 reagents; this is an unselected part. In the full data, 450 (2.5%) got an active call. 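Single biological run; no consistent viability z cut-off exists, so the class columns, not z-scores, define the calls.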 Entries without a mark were called inactive. No sequences are given here.

gene symbol	viability hit class	caspase hit class	viability robust z-score	caspase robust z-score
MOG (myelin oligodendrocyte glycoprotein)	no change	no change	-1.25	0.16
DUSP14 (dual specificity phosphatase 14)	no change	no change	1.96	-0.71
SNED1 (sushi, nidogen and EGF like domains 1)	no change	no change	0.4	3.07
PLPBP (pyridoxal phosphate binding protein)	no change	no change	0.03	-0.12
TAF12 (TATA-box binding protein associated factor 12)	no change	no change	-1.7	2.49
MRPL14 (mitochondrial ribosomal protein L14)	no change	no change	0.58	-0.7
P4HTM (prolyl 4-hydroxylase, transmembrane)	no change	no change	-0.49	0.64
APEH (acylaminoacyl-peptide hydrolase)	no change	no change	0.8	-0.64
RAB20 (RAB20, member RAS oncogene family)	no change	no change	0.68	-0.74
ALG14 (ALG14 UDP-N-acetylglucosaminyltransferase subunit)	no change	no change	0.58	-0.79
ELL2 (elongation factor for RNA polymerase II 2)	no change	no change	0.86	-0.54
NUP98 (nucleoporin 98 and 96 precursor)	no change	no change	-4.21	1.09
ARHGAP5 (Rho GTPase activating protein 5)	no change	no change	-0.08	0.36
SLC38A6	no change	no change	-0.28	-0.06
RNF187 (ring finger protein 187)	no change	no change	0.98	-0.3
JAK2 (Janus kinase 2)	no change	no change	-3.7	1.34
CCDC24 (coiled-coil domain containing 24)	no change	no change	-0.28	0.96
SLC35F2	no change	no change	-0.02	1.52
HS1BP3 (HCLS1 binding protein 3)	no change	no change	-0.01	-0.08
ZFP69 (ZFP69 zinc finger protein)	no change	no change	0.54	-0.88
ARRDC1 (arrestin domain containing 1)	no change	no change	-0.58	-0.32
TFEB (transcription factor EB)	no change	no change	0.42	1.26
HIVEP2 (HIVEP zinc finger 2)	no change	no change	-0.38	1.68
LCE3D (late cornified envelope 3D)	no change	no change	-1.08	0.38
SLC25A14	no change	no change	-1.98	1.1
SQSTM1 (sequestosome 1)	no change	no change	-0.22	-0.08
MCF2L (MCF.2 cell line derived transforming sequence like)	no change	no change	-0.92	0.98
SFT2D1 (SFT2 domain containing 1)	no change	no change	0.26	-0.64
ACTL7B (actin like 7B)	no change	no change	0.44	-0.32
IZUMO4 (IZUMO family member 4)	no change	no change	-1.36	1.42
PPFIA2 (PPFI scaffold protein A2)	no change	no change	-0.92	3.25
COQ9 (coenzyme Q9)	no change	no change	0.59	0.97
SEPTIN7 (septin 7)	no change	no change	1.75	-0.48
EIF3G (eukaryotic translation initiation factor 3 subunit G)	no change	no change	-3.65	-0.6
GEMIN2 (gem nuclear organelle associated protein 2)	no change	no change	0.98	0.22
FGF17 (fibroblast growth factor 17)	no change	no change	0.3	-0.85
GCLM (glutamate-cysteine ligase modifier subunit)	no change	no change	0.46	-0.36
CLTA (clathrin light chain A)	no change	no change	-0.99	0.17
CACNA1D (calcium voltage-gated channel subunit alpha1 D)	no change	no change	0.42	0.06
MFAP4 (microfibril associated protein 4)	no change	no change	-1.31	2.09
GALK1 (galactokinase 1)	RV2 (reduced viability) (active)	no change	-3.66	4.09
MRPS10 (mitochondrial ribosomal protein S10)	no change	no change	0.56	-0.48
NBPF10 (NBPF member 10)	no change	no change	-0.04	-0.1
AMPD2 (adenosine monophosphate deaminase 2)	no change	no change	1.38	-0.34
GPRIN1 (G protein regulated inducer of neurite outgrowth 1)	no change	no change	-0.96	0.86
OR9I1 (olfactory receptor family 9 subfamily I member 1)	no change	no change	-1.04	-1.22
ZNF257 (zinc finger protein 257)	no change	no change	0.94	-0.48
AVEN (apoptosis and caspase activation inhibitor)	no change (active)	CA1 (caspase activation)	-0.42	5.41
FCER2 (Fc epsilon receptor II)	no change	no change	-0.1	-0.44
FEM1A (fem-1 homolog A)	no change	no change	-0.65	1.21
POMT1 (protein O-mannosyltransferase 1)	no change	no change	0.08	-0.08
FBXO43 (F-box protein 43)	no change	no change	1.21	2.71
FAM174A (family with sequence similarity 174 member A)	no change	no change	0.21	-1.25
NUP133 (nucleoporin 133)	RV2 (reduced viability) (active)	CA2 (caspase activation)	-3.43	5.65
TDRD12 (tudor domain containing 12)	no change	no change	-1.25	-0.56
ZXDA (zinc finger X-linked duplicated A)	no change	no change	0.44	0.91
ZNF574 (zinc finger protein 574)	no change	no change	-0.56	1.54

No new results follow: entries from further up.
gene symbol	viability hit class	caspase hit class	viability robust z-score	caspase robust z-score
RNF187 (ring finger protein 187)	no change	no change	0.98	-0.3
JAK2 (Janus kinase 2)	no change	no change	-3.7	1.34
CCDC24 (coiled-coil domain containing 24)	no change	no change	-0.28	0.96
